Tested on: B16-F10, HT-29, and HepG2 cells
Experiment: Cellular uptake and distribution by confocal microscopy
Format: cell-based, mouse, human
Conditions: at IC50 concentrations, 30 min to 24 h

Compound	uptake and subcellular distribution of green fluorescence
CC1(C)CC[C@]2(C(=O)O)CC[C@]3(C)C(=CC[C@@H]4[C@@]5(C)CC[C@H](OC(=O)CCCCCNc6ccc([N+](=O)[O-])c7nonc67)C(C)(C)[C@@H]5CC[C@]43C)[C@@H]2C1 [Compound 1, 3β-((6-((7-Nitrobenzo[c][1,2,5]oxadiazol-4-yl)amino)hexanoyl)oxy)olean-12-en-28-oic Acid]	cytoplasmic distribution
CC1(C)CC[C@]2(C(=O)O)CC[C@]3(C)C(=CC[C@@H]4[C@@]5(C)C[C@@H](OC(=O)CCCCCNc6ccc([N+](=O)[O-])c7nonc67)[C@H](O)C(C)(C)[C@@H]5CC[C@]43C)[C@@H]2C1 [Compound 2, 3β-Hydroxy-2α-((6-((7-nitrobenzo[c][1,2,5]oxadiazol-4-yl)amino)hexanoyl)oxy)olean-12-en-28-oic Acid]	cytoplasmic distribution
